These are yes or no findings as the source states them, for the method shown. Binding seen in cells or lysates may run through a third protein. Some results given as binding are weak or reduced against the parent protein; the word gives no strength. Sequences can lack the tags named with a protein.
Legend:
[1] = molecular target: T1, Mac-2 binding protein (M2BP), myc-tagged (UniProt Q08380); assay: co-IP; HEK293T expressing M2BP-myc, Flag-VIM and HIV-1 Gag together; lysates immunoprecipitated with the antibodies indicated in the figure, Western blot (Fig. 8C; Supplementary Fig. 5)
T1 sequence: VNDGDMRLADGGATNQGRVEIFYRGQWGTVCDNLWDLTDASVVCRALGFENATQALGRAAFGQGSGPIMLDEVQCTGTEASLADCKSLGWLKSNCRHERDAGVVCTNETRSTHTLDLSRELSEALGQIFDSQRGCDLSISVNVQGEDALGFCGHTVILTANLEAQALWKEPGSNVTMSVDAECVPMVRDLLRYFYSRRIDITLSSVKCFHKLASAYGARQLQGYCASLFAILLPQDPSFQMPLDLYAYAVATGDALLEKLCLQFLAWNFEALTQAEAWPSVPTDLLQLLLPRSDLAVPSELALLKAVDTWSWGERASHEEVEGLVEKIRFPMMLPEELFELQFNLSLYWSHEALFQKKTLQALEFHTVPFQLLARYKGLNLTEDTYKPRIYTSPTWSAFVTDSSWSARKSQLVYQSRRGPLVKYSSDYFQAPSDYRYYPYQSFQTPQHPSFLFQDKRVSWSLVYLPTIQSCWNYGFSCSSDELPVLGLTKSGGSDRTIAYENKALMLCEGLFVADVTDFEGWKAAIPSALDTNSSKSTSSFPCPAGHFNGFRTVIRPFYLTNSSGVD

Sequences of proteins named here, by UniProt entry; tags and fusion partners are left off.
UniProt P08670: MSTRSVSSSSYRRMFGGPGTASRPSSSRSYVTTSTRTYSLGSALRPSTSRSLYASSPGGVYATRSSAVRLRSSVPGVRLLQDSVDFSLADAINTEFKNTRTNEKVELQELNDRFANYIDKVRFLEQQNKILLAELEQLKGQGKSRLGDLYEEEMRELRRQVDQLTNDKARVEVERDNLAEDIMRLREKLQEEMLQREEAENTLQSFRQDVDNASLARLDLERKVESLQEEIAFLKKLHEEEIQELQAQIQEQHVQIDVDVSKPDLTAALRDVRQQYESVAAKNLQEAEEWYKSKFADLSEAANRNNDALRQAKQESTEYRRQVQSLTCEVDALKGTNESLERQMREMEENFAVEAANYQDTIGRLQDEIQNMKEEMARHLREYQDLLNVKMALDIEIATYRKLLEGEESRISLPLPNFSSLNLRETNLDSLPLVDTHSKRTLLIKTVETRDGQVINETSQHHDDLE

[2] = molecular target: T2, M2BP (251–585), myc-tagged truncation mutant (UniProt Q08380); assay: co-IP; immunoprecipitation from cells expressing M2BP (251–585), VIM and Gag (Supplementary Fig. 6)
T2 sequence: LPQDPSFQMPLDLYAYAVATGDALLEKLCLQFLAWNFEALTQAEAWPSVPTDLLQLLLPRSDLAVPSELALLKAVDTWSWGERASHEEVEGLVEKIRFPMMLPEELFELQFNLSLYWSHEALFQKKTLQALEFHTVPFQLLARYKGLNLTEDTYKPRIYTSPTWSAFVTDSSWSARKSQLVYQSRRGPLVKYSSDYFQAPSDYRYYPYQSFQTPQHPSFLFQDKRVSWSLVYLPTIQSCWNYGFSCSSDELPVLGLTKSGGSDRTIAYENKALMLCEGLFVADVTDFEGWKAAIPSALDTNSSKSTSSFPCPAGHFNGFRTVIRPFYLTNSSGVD

[3] = molecular target: T1, Mac-2 binding protein (M2BP), myc-tagged; assay: co-IP; HEK293T co-transfected with M2BP-myc and Flag-VIM or pHIV-1_(NL4-3)ΔEnv-luc; M2BP immunoprecipitated (anti-c-myc agarose, 4 °C, 4 h), washes in TBST, Western blot (Fig. 8A,B)
[4] = molecular target: T3, M2BP (124–585), myc-tagged truncation mutant (UniProt Q08380); assay: co-IP; immunoprecipitation from cells expressing M2BP (124–585), VIM and Gag (Supplementary Fig. 6)
T3 sequence: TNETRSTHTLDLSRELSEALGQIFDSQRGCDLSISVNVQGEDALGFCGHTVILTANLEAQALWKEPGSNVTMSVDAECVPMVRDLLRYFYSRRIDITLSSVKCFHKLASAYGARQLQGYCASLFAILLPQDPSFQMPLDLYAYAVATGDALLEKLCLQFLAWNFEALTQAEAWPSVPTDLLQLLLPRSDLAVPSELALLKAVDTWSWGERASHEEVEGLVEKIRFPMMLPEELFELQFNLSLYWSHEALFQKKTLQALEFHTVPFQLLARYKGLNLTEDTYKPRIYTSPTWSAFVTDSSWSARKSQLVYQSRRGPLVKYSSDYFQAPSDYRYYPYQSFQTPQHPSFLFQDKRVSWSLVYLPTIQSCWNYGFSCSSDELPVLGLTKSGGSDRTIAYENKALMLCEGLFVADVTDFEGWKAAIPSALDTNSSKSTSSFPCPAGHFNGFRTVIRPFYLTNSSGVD

Measured: binding

Vimentin (VIM), Flag-tagged (from UniProt P08670 1-466)
binds: all assays above

From article PMC5015019
